# Laboratory results taken from PMC3775723.
# Target: Myc-Slimb^ΔWD40 (truncated Slimb protein lacking its WD40 domains) (Drosophila)
# Experiment: co-IP; S2 cells co-transfected with tagged Akt (Myc or Flag) and a tagged F-box protein (Flag-Slimb, Myc-Slimb^ΔWD40 or Flag-Ago); lysate immunoprecipitated, protein A/G beads, Western blot
binder,measurement,value
"Flag-Akt, transfected S2 cells (protein, UniProt Q8INB9 1-611) MNYLPFVLQRRSTVVASAPAPGSASRIPESPTTTGSNIINIIYSQSTHPNSSPTSGSAEKFSWQQSWPSRTSAAPTHDSGTMSINTTFDLSSPSVTSGHALTEQTQVVKEGWLMKRGEHIKNWRQRYFVLHSDGRLMGYRSKPADSASTPSDFLLNNFTVRGCQIMTVDRPKPFTFIIRGLQWTTVIERTFAVESELERQQWTEAIRNVSSRLIDVGEVAMTPSEQTDMTDVDMATIAEDELSEQFSVQGTTCNSSGVKKVTLENFEFLKVLGKGTFGKVILCREKATAKLYAIKILKKEVIIQKDEVAHTLTESRVLKSTNHPFLISLKYSFQTNDRLCFVMQYVNGGELFWHLSHERIFTEDRTRFYGAEIISALGYLHSQGIIYRDLKLENLLLDKDGHIKVADFGLCKEDITYGRTTKTFCGTPEYLAPEVLDDNDYGQAVDWWGTGVVMYEMICGRLPFYNRDHDVLFTLILVEEVKFPRNITDEAKNLLAGLLAKDPKKRLGGGKDDVKEIQAHPFFASINWTDLVLKKIPPPFKPQVTSDTDTRYFDKEFTGESVELTPPDPTGPLGSIAEEPLFPQFSYQGDMASTLGTSSHISTSTSLASMQ",binding,no binding

# These are yes or no findings as the source states them, for the method shown. In cells and extracts the contact can be indirect. Sequences can lack the tags named with a protein.
